Experimental data: PubChem BioAssay AID1259308 (NCATS, 2017)
Here is one part, drawn at random, of about 59,000 reagents. Over the whole deposit, about 1,510 (2.6%) got an active call. 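Calls use total luciferase alone and ignore viability, so some active siRNAs may act by altering cell number.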 The numbers tell different reagents against one gene apart. Further read-outs or replicates are left out here. No sequences are given here.

Screen: 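Genes whose loss raises luciferase production in HEK293 cells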 (primary screen)
System: human HEK293 embryonic kidney cells stably expressing firefly luciferase (HEK-CMV-Luc2-Hygro)
Reagents: single siRNA against human genes, 0.8 pmol siRNA per well
Timing: 72 h
Read-out: 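Luciferase light (ONE-Glo) measured on one replicate plate set and viability (CellTiter-Glo) on the other, scaled to a negative control siRNA, with robust z-scores and luciferase per cell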
Direction: total luciferase, z-score: higher = more reporter protein produced
Call rule: 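An siRNA counts as active if its total luciferase robust z-score exceeds 3; genes with two or more such siRNAs out of three were retested with fresh siRNAs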
Calls: active = raised luciferase; inactive = no rise

target gene,reagent no.,"total luciferase, z-score",activity call
ARRDC1-AS1 (ARRDC1 antisense RNA 1),1,0.95,inactive
ARRDC1-AS1 (ARRDC1 antisense RNA 1),2,0.836,inactive
ARRDC1-AS1 (ARRDC1 antisense RNA 1),3,-0.706,inactive
DNAJC22 (DnaJ heat shock protein family (Hsp40) member C22),1,0.376,inactive
DNAJC22 (DnaJ heat shock protein family (Hsp40) member C22),2,2.12,inactive
DNAJC22 (DnaJ heat shock protein family (Hsp40) member C22),3,1.74,inactive
FUT1 (fucosyltransferase 1 (H blood group)),1,-0.344,inactive
FUT1 (fucosyltransferase 1 (H blood group)),2,-2.1,inactive
FUT1 (fucosyltransferase 1 (H blood group)),3,-1.52,inactive
PRKD3 (protein kinase D3),1,1.46,inactive
PRKD3 (protein kinase D3),2,-0.754,inactive
PRKD3 (protein kinase D3),3,-1.09,inactive
"POLR2F (RNA polymerase II, I and III subunit F)",1,-1.3,inactive
"POLR2F (RNA polymerase II, I and III subunit F)",2,-3.34,inactive
"POLR2F (RNA polymerase II, I and III subunit F)",3,-2.39,inactive
RPIA (ribose 5-phosphate isomerase A),1,-0.401,inactive
RPIA (ribose 5-phosphate isomerase A),2,1.54,inactive
RPIA (ribose 5-phosphate isomerase A),3,0.493,inactive
"GBE1 (1,4-alpha-glucan branching enzyme 1)",1,-0.173,inactive
"GBE1 (1,4-alpha-glucan branching enzyme 1)",2,-0.744,inactive
"GBE1 (1,4-alpha-glucan branching enzyme 1)",3,-0.225,inactive
PYDC1 (pyrin domain containing 1),1,-1.45,inactive
PYDC1 (pyrin domain containing 1),2,0.48,inactive
PYDC1 (pyrin domain containing 1),3,0.703,inactive
BBOF1 (basal body orientation factor 1),1,0.078,inactive
BBOF1 (basal body orientation factor 1),2,0.655,inactive
BBOF1 (basal body orientation factor 1),3,2.53,inactive
"VNN3P (vanin 3, pseudogene)",1,-0.772,inactive
"VNN3P (vanin 3, pseudogene)",2,-0.2,inactive
"VNN3P (vanin 3, pseudogene)",3,-0.123,inactive
STRADB (STE20 related adaptor beta),1,4.25,active
STRADB (STE20 related adaptor beta),2,-0.0667,inactive
STRADB (STE20 related adaptor beta),3,1.39,inactive
VSIG10L (V-set and immunoglobulin domain containing 10 like),1,0.542,inactive
VSIG10L (V-set and immunoglobulin domain containing 10 like),2,2.43,inactive
VSIG10L (V-set and immunoglobulin domain containing 10 like),3,0.22,inactive
COPS8 (COP9 signalosome subunit 8),1,-0.474,inactive
COPS8 (COP9 signalosome subunit 8),2,-0.109,inactive
COPS8 (COP9 signalosome subunit 8),3,-0.309,inactive
YWHAB,1,0.521,inactive
YWHAB,2,-0.485,inactive
YWHAB,3,-0.379,inactive
SOX17 (SRY-box transcription factor 17),1,1.8,inactive
SOX17 (SRY-box transcription factor 17),2,0.0946,inactive
SOX17 (SRY-box transcription factor 17),3,-0.301,inactive
"PKD2 (polycystin 2, transient receptor potential cation channel)",1,0.352,inactive
"PKD2 (polycystin 2, transient receptor potential cation channel)",2,-0.659,inactive
"PKD2 (polycystin 2, transient receptor potential cation channel)",3,1.6,inactive
AR (androgen receptor),1,0.498,inactive
AR (androgen receptor),2,0.217,inactive
AR (androgen receptor),3,-0.0689,inactive
BIK (BCL2 interacting killer),1,-0.856,inactive
BIK (BCL2 interacting killer),2,1.85,inactive
BIK (BCL2 interacting killer),3,-0.218,inactive
UNKL (unk like zinc finger),1,-0.426,inactive
UNKL (unk like zinc finger),2,-0.164,inactive
UNKL (unk like zinc finger),3,0.314,inactive
UNKL (unk like zinc finger),4,2.5,inactive
UNKL (unk like zinc finger),5,1.63,inactive
UNKL (unk like zinc finger),6,0.582,inactive
"TBC1D27P (TBC1 domain family member 27, pseudogene)",1,-0.477,inactive
"TBC1D27P (TBC1 domain family member 27, pseudogene)",2,3.96,active
"TBC1D27P (TBC1 domain family member 27, pseudogene)",3,-2.6,inactive
KCNH4 (potassium voltage-gated channel subfamily H member 4),1,0.0422,inactive
KCNH4 (potassium voltage-gated channel subfamily H member 4),2,-0.593,inactive
KCNH4 (potassium voltage-gated channel subfamily H member 4),3,1.19,inactive
NLRP12 (NLR family pyrin domain containing 12),1,-0.992,inactive
NLRP12 (NLR family pyrin domain containing 12),2,-0.0991,inactive
NLRP12 (NLR family pyrin domain containing 12),3,-0.867,inactive
CDH7 (cadherin 7),1,-1.35,inactive
CDH7 (cadherin 7),2,0.79,inactive
CDH7 (cadherin 7),3,-0.564,inactive
AMZ2P1 (AMZ2 pseudogene 1),1,-0.992,inactive
AMZ2P1 (AMZ2 pseudogene 1),2,-1.3,inactive
AMZ2P1 (AMZ2 pseudogene 1),3,-1.66,inactive

Copied from the entries so far, 8 entries:
target gene,reagent no.,"total luciferase, z-score",activity call
COPS8 (COP9 signalosome subunit 8),1,-0.474,inactive
COPS8 (COP9 signalosome subunit 8),2,-0.109,inactive
COPS8 (COP9 signalosome subunit 8),3,-0.309,inactive
YWHAB,1,0.521,inactive
YWHAB,2,-0.485,inactive
YWHAB,3,-0.379,inactive
SOX17 (SRY-box transcription factor 17),1,1.8,inactive
SOX17 (SRY-box transcription factor 17),2,0.0946,inactive
